# Experimental data from PubChem BioAssay AID652054 (National Center for Advancing Translational Sciences (NCATS), 2013).
# By UniProt entry, the sequences of proteins in these tests, tags left out.
# UniProt P35462, whole entry, looked up: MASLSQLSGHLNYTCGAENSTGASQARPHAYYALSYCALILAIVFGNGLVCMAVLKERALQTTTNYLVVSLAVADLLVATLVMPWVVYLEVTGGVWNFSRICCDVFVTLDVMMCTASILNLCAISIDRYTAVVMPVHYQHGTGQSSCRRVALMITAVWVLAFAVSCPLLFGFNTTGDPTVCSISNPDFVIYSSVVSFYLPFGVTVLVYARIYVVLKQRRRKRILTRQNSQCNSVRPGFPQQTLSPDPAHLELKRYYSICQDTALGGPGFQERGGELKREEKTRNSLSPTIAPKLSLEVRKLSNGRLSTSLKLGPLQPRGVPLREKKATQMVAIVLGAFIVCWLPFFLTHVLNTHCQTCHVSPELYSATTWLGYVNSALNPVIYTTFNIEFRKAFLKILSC
# Hit rate of the full screen: of about 360,000 compounds, about 9,100 (2.5%) were called active. The shares of active, inactive and inconclusive entries below differ from those in the screen. Rule as the data show it: active = max response below about -50%; inconclusive = no clear call, values can overlap the other calls; inactive = above that.
# Target: D(3) dopamine receptor (Homo sapiens) (UniProt P35462)
# Assay: qHTS of D3 Dopamine Receptor Antagonist: qHTS
# Details: D3R cells, DiscoveRx beta-arrestin luminescence, antagonist mode; active compounds read low
# Method in brief: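 Cells expressing the human receptor were seeded at 1500 cells/well, incubated overnight at 37 degrees C in 5% CO2, then exposed to library compounds with dopamine controls for 90 minutes at 37 degrees C before luminescent detection.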
# % is scaled to controls: 0 for no effect and ±100 for the full control effect.
row,SMILES,"max response, negative = inhibition"
1,C#CCCCCCCC#CCN(C)C,active: -58.1%
2,O=C1NC[C@H](Cc2ccc(O)cc2)N(C[C@H]2CCCN2C[C@H](Cc2ccc(O)cc2)N2C[C@H](Cc3ccc(O)cc3)N(CCc3ccccc3)C(=O)C2=O)C1=O,active: -70.3%
3,COc1ccc(C(=O)NC(=S)Nc2cccnc2)cc1Cl,inconclusive: -31.9%
4,C=CCOc1c(Br)cc(CNCCCN2CCOCC2)cc1OC,inactive: 0.641%
5,CCOC(=O)c1c(CN2CCN(C)CC2)n(C)c2cc(Br)c(OC)cc12,inconclusive: -40.3%
6,O=C1c2cc(Cl)ccc2-c2c(O)cc(Cl)cc21,inconclusive: -39.3%
7,O=C(NCC1CCCO1)C1CCN(S(=O)(=O)c2cccc3nonc23)CC1 (configuration not stated),inconclusive: -43.2%
8,Cc1ccc(-c2nn(-c3ccccc3)cc2/C=N/O)cc1,active: -52.5%
9,Nc1c(C(=O)Nc2ccccc2)sc2nc3c(c(-c4ccco4)c12)CCC3,active: -60.5%
10,Cn1c(-c2ccccc2)cc2onc(-c3ccccc3)c2c1=O,active: -68.5%
11,COc1ccc(/C=N/NC(=O)c2cccnc2)cc1CN1CCN(c2ccc(F)cc2)CC1,inconclusive: -30.1%
12,NCCNC(=O)Cn1c(=O)c2c3c(sc2n(Cc2ccccc2)c1=O)CCCC3,inconclusive: -40.9%
13,O=S(=O)(CCNCc1cccs1)c1ccc(Cl)cc1,inactive: 7.26%
14,C=CCN1C(=O)[C@@H]2Cc3c([nH]c4ccccc34)C(c3cc(OC)c(OC)c(OC)c3)N2C1=S (some centres not stated),inconclusive: -37%
15,O=C(COC(=O)CCC(=O)c1ccccc1)Nc1nnc(-c2ccccc2)o1,inconclusive: -30.5%
16,S=c1[nH]nc(-c2ccccc2)n1/N=C/c1ccc(-c2ccccc2Cl)o1,inconclusive: -34.3%
17,COc1ccc(-c2[nH]ncc2CN2CCN(Cc3cccs3)CC2)cc1F,inconclusive: -36.7%
18,Cc1ccc(-c2nc3c(Cl)cc(C(F)(F)F)cn3c2Cc2ccsc2)cc1,active: -58.5%
19,O=C1N[C@H](Cc2ccccc2)COC(=O)[C@H](Cc2ccc(F)cc2)C/C=C\C[C@H]1CC(=O)N(CCO)Cc1ccccc1,inconclusive: -32.5%
20,CCN(CC)c1ccc(NC(=O)c2ccccc2Br)cc1S(=O)(=O)Nc1ccccc1OC,inconclusive: -41%
21,Cc1cc(C(=O)Nc2ccc(Cl)cc2)c(C)n1Cc1cccs1,inconclusive: -32.9%
22,COc1cc(C2c3c(oc4ccccc4c3=O)C(=O)N2CCN2CCOCC2)cc(OC)c1OC (configuration not stated),inconclusive: -48.6%

row,SMILES,"max response, negative = inhibition"
1,O=C(c1sc2ccccc2c1Cl)N(Cc1cccs1)C1CCS(=O)(=O)C1 (configuration not stated),inconclusive: -31.2%
2,CNc1ccc(-c2cccc(C(=O)N3CCOCC3)c2)cn1,inconclusive: -39.6%
3,O=C(Nc1ccccc1C(=O)O)c1ccc(NC(=O)C2CC2)cc1,inactive: 53.5%
4,COc1ccc(-c2cn(CCO)nc2-c2ccc(OC)cc2)cc1,inconclusive: -33.5%
5,NC(=O)CC(NC(=O)c1ccccc1)c1ccc(N2CCc3ccccc3C2)c([N+](=O)[O-])c1 (configuration not stated),inconclusive: -34.5%
6,COc1ccc(CNC(=O)C(C#N)c2nc3ccccc3nc2N2CCCC2)cc1 (configuration not stated),inconclusive: -31.9%
7,O=C(NCCCCc1ccccc1)c1cccc(NC(=O)C2CCCCC2)c1,inconclusive: -49.6%
8,Cc1cccc(NC(=O)C2SC(=Nc3c(C)cccc3C)C(C(=O)N3CCOCC3)=C2N)c1 (configuration not stated),inconclusive: -32.4%
9,O=C(c1ccc(CS(=O)Cc2ccc(Cl)cc2)o1)N1CCN(c2ccc(F)cc2)CC1 (configuration not stated),inactive: 2.8%
10,COc1ccc(CNC(=O)c2sc(=O)n(Cc3ccccc3C)c2C)cc1,inactive: -28.2%
11,CCc1ccccc1N(C)S(=O)(=O)c1ccc2[nH]cc(C(=O)O)c(=O)c2c1,inactive: 5.96%
12,Cc1cc(NC(=O)Nc2cccs2)no1,inconclusive: -32%
13,Oc1[nH]c(=S)sc1C=C1N=c2ccccc2=N1,inactive: -24.2%
14,Cc1ccc2nc(N/N=C/c3ccco3)cc(C)c2c1,inactive: -25.1%
15,C=CCc1ccccc1OCC(O)CN1CCN(c2ccc(C)cc2)CC1 (configuration not stated),active: -58.8%
16,C[C@@H]1CCCCO[C@H](CN(C)C(=O)Nc2ccc(F)cc2)[C@@H](C)CN([C@H](C)CO)C(=O)c2cc(NC(=O)c3ccccc3)ccc2O1,inactive: -21%
17,C/C(N)=C(/C#N)C(=O)COC(=O)c1cc(C)n(-c2ccc(F)cc2)c1C,inconclusive: -42.4%
18,C=CC#CC1(O)CC(C)N(C)CC1C (configuration not stated),active: -66.1%
19,O=[N+]([O-])c1ccc(N2CCN(Cc3ccccc3)CC2)c2c1no[n+]2[O-],active: -74%
20,COc1cc(/C=C(\C#N)c2nc3ccc(C)cc3[nH]2)cc([N+](=O)[O-])c1O,inconclusive: -32.9%
22,CCN(CC)c1ccc(NC(=O)c2cnn(CC)c2)cc1,inconclusive: -39.2%

row,SMILES,"max response, negative = inhibition"
1,O=C(NC(=C(Cl)Cl)S(=O)(=O)c1ccc(Cl)cc1)c1ccccc1,inconclusive: -38.2%
2,Cc1cccc(C)c1NC(=O)c1cc(S(=O)(=O)N2CCc3ccccc32)cn1C,inconclusive: -42.5%
3,O=[N+]([O-])c1ccc2c(c1)Nc1nc3ccccc3nc1N2,inconclusive: -32.6%
4,O=C(N/N=C/C1CC=CCC1)c1ccc(Cl)cc1O (configuration not stated),inactive: 18%
5,S=c1[nH]nc(-c2cccc3ccccc23)n1-c1cccnc1,inconclusive: -45.9%
6,Cc1c(NCc2cc(Cl)cc(Cl)c2O)c(=O)n(-c2ccccc2)n1C,inconclusive: -33.8%
7,COc1ccc(CNC(=O)COc2cc(O)c3c(c2)OC(C)(C)CC3=O)cc1,inconclusive: -34.6%
8,CCOC(=O)C(C)Sc1nnc(Cc2cc(=O)[nH]c(=O)[nH]2)n1-c1cccc(OC)c1 (configuration not stated),inconclusive: -33.8%
9,O=C(Cn1cccc1C(=O)c1ccccc1)NCCCN1CCc2ccccc2C1,inconclusive: -45.7%
10,COc1ccc(CN2CCCC(C(=O)N3CCc4ccccc4C3)C2)cc1OC (configuration not stated),active: -60.8%
11,S=c1nc(C2COc3ccccc3O2)[nH][nH]1 (configuration not stated),inconclusive: -30.9%
12,CCOc1ccc(S(=O)(=O)N(C)c2ccc(OCC(=O)NC3=NCCS3)cc2)cc1,inconclusive: -35.9%
13,CC(=O)NC(c1ccc(Cl)cc1Cl)c1ccc2cccnc2c1O (configuration not stated),inactive: 19.3%
14,C(=N\c1nc2ccccc2n1CCN1CCCCC1)/c1ccc2c(c1)OCO2,inconclusive: -32.7%
15,CCCCNC(=S)NNC(=O)C1=NN(c2cc(C)ccc2C)C(=O)CC1,inconclusive: -36.8%
16,CCCCN(CC)CCNC(=O)c1cc2c(-c3ccc(Cl)cc3)nn(C)c2s1,active: -61.6%
17,Cc1ccc(SCCN2CCC(NC(=O)OCc3ccccc3)CCC2=O)cc1 (configuration not stated),inactive: 15.9%
18,Cc1nn(C(C)C)c(C)c1CN1CCC(C(=O)Nc2cccc(-c3cccc(F)c3)c2)CC1,active: -53.4%
19,COc1ccccc1-c1nc(C#N)c(N2CCN(C(c3ccccc3)c3ccccc3)CC2)o1,inconclusive: -47.4%
20,COCc1nnc(NC(=O)c2ccc(S(=O)(=O)N3CCCCCC3)cc2)o1,inactive: 0%
21,O=C(N/N=C/c1ccc(Cl)cc1)c1cc(-c2cccnc2)nc2ccccc12,inactive: 6.89%
22,CC(=O)Nc1ccc(S(=O)(=O)N2CCC(C(=O)Nc3nccs3)CC2)cc1,inactive: 7.94%

# Individual results from the entries so far.
# For max response, negative = inhibition, `CCOc1ccc(S(=O)(=O)N(C)c2ccc(OCC(=O)NC3=NCCS3)cc2)cc1` is listed with inconclusive: -35.9%
# For max response, negative = inhibition, `O=C(Cn1cccc1C(=O)c1ccccc1)NCCCN1CCc2ccccc2C1` is listed with inconclusive: -45.7%
# For max response, negative = inhibition, `COCc1nnc(NC(=O)c2ccc(S(=O)(=O)N3CCCCCC3)cc2)o1` is listed with inactive: 0%
# For max response, negative = inhibition, `Cc1ccc(SCCN2CCC(NC(=O)OCc3ccccc3)CCC2=O)cc1` (configuration not stated) is listed with inactive: 15.9%

# Additional results.

row,SMILES,"max response, negative = inhibition"
1,O=C(O)CSc1nnc(Cc2ccccc2)n1-c1ccccc1,inactive: -26.7%
2,c1ccc(COc2ccc(OCCCCN3CCCCC3)cc2)cc1,active: -72%
3,CN(CCc1ccccn1)Cc1ccc(Cl)cc1,inconclusive: -30.8%
4,Cc1cccc2nc(-c3ccccc3)nc(N3CCC(O)(c4ccc(Cl)cc4)CC3)c12,inconclusive: -30.5%
5,Oc1ccccc1CN1CCCN(Cc2ccccc2O)C1,inconclusive: -32.3%
6,COc1cc2cc(NC(C)=O)cc(NCc3ccccc3)c2cc1OC,inconclusive: -39.4%
7,Cc1nc(-c2ccc(C(F)(F)F)cc2)sc1C(=O)NN,inconclusive: -30.4%
8,O=C(NC1CCCCC1)C(c1cccnc1)N(C(=O)CCl)c1cccc(Cl)c1 (configuration not stated),inconclusive: -33.7%
9,CCOC(=O)C1CCN(Cc2cccc(Oc3ccc(Cl)cc3)c2)CC1,inconclusive: -37.7%
10,Cc1oc(-c2ccccc2F)nc1CS(=O)(=O)CC(=O)NCCCN1CCc2ccccc2C1,active: -76.9%
11,NC(=O)c1nn(Cc2ccccc2)c(=O)c2ccccc12,inactive: -4.95%
12,O=C1N[C@@H](Cc2ccccc2)C(=O)N2[C@H]1C[C@]1(Br)c3ccccc3N(S(=O)(=O)c3ccc(F)cc3)[C@H]21,inconclusive: -37%
13,Cc1cc(O)c(NC(=S)NC(=O)c2ccc(-c3ccc(Cl)cc3)o2)cc1C,active: -76.3%
14,Cc1cc(C(=O)OCc2nnc(-c3ccccc3)o2)c(C)n1-c1ccccc1,inconclusive: -37.5%
15,O=C1CS/C(=C/C(=O)c2ccccc2)N1,inconclusive: -44.6%
16,CC(Nc1nc(=S)nc(Nc2ccc(F)cc2)[nH]1)c1ccccc1 (configuration not stated),inactive: -1.95%
17,FC(F)(F)C1CCCN(c2nsc3ccccc23)C1 (configuration not stated),active: -81.7%
18,COc1cc(NC(=O)CN2CCN(c3ccccc3F)CC2)cc(OC)c1,inconclusive: -30.7%
19,CCOc1ccccc1NC(=O)COc1ccc2ccc(=O)oc2c1,inactive: 3.98%
20,Cc1ccc([N+](=O)[O-])cc1NC(=S)NC(=O)C(C)(C)C,inconclusive: -36.4%
21,COc1cccc(C(=O)Nc2c3c(nn2-c2ccc([N+](=O)[O-])cc2)CS(=O)(=O)C3)c1,inactive: -11.9%

# Random excerpt: 2 compounds from above.
row,SMILES,"max response, negative = inhibition"
7,Cc1nc(-c2ccc(C(F)(F)F)cc2)sc1C(=O)NN,inconclusive: -30.4%
10,Cc1oc(-c2ccccc2F)nc1CS(=O)(=O)CC(=O)NCCCN1CCc2ccccc2C1,active: -76.9%
